## Library screen at single concentrations

Protein sequences, listed by entry. Tags and fused reporters are not part of them. Residues count along the entry.
UniProt Q8IDJ8, 1-583: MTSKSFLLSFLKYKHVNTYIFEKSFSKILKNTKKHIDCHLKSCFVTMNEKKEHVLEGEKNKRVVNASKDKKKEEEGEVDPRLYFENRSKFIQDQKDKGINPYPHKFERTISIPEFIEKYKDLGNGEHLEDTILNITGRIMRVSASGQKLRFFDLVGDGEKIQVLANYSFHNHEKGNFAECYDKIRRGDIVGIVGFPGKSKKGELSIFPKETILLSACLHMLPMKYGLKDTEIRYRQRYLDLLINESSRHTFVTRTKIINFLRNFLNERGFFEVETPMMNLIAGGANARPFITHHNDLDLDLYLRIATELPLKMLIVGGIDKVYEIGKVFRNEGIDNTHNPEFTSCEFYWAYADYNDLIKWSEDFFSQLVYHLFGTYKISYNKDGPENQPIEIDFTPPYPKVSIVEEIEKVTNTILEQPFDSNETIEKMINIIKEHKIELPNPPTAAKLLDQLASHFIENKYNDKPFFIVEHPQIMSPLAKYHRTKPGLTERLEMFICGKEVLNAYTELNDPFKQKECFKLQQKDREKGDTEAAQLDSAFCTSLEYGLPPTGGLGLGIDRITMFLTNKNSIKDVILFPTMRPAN
UniProt Q4DA54, 1-478: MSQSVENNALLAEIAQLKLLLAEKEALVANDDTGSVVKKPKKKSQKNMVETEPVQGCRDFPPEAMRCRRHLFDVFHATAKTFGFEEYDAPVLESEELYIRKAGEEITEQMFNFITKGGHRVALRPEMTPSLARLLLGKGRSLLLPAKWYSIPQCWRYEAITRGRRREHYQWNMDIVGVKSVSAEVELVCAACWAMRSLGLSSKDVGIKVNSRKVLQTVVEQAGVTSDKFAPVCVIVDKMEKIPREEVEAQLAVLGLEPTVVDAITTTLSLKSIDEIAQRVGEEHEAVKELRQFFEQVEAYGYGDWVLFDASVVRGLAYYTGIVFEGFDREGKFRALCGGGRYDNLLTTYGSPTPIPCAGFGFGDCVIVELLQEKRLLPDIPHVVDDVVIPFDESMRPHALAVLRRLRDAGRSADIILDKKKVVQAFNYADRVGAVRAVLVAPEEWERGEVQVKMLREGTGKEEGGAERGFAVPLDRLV
UniProt I6X8D2, whole entry: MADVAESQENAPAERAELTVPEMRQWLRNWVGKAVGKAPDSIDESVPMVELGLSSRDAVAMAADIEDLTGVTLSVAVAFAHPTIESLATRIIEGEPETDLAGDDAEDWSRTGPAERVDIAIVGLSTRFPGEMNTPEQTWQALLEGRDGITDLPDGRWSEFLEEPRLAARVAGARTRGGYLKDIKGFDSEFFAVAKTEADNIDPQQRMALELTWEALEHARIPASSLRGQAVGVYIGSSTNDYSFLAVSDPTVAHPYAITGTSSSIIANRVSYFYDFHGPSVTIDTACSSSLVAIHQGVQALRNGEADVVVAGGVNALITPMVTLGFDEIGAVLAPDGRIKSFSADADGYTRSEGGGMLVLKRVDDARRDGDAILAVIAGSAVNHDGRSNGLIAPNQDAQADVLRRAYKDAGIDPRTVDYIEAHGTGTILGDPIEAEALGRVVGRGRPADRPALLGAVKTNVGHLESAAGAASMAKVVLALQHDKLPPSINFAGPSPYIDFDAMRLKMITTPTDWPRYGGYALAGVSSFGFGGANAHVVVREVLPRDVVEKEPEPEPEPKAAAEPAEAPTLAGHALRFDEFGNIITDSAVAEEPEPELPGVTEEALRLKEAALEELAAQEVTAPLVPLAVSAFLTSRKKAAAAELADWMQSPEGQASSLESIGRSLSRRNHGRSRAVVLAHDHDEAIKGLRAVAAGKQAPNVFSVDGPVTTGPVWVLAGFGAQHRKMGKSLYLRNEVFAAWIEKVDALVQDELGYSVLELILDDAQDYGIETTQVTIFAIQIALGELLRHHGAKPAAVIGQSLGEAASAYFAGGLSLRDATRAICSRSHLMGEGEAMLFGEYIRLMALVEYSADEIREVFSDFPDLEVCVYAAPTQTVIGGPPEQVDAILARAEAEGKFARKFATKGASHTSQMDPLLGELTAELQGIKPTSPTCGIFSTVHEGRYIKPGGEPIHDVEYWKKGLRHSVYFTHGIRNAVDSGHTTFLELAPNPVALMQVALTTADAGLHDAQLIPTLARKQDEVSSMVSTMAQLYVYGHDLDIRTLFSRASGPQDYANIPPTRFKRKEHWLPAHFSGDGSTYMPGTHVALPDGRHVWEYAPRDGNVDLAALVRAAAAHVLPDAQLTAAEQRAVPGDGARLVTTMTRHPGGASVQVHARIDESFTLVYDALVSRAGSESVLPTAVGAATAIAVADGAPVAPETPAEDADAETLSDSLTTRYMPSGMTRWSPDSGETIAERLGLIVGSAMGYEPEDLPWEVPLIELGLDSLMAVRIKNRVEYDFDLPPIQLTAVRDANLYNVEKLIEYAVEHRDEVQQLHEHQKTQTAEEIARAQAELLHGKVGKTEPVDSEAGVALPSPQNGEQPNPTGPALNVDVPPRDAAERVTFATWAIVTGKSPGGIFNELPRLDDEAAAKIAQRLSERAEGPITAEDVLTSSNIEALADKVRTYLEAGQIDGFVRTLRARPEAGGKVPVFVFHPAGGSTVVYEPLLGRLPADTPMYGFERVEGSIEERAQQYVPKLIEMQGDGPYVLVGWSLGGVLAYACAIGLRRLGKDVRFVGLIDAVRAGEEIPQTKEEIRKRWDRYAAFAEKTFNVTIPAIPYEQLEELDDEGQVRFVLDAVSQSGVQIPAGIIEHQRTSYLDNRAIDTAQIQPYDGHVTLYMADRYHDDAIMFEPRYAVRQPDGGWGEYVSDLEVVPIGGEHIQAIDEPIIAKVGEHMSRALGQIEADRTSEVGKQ

PfKRS1: 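Lysine-tRNA ligase, Plasmodium falciparum 3D7 (UniProt Q8IDJ8). Enzyme assay of the cytosolic lysyl-tRNA synthetase in 384-well plates, read by luminescence. Tested at 30 µM. Higher reads as stronger inhibition, judged from the few compounds that gave an IC50. Size under these conditions: about 69,000 compounds, about 49 of them at 50% or above in at least one test.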
TcHisRS: 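Enzyme assay of histidyl-tRNA synthetase; the read-out is not stated. Target: Histidine-tRNA ligase, Trypanosoma cruzi CL Brener (UniProt Q4DA54). Compounds at 30 µM. Higher reads as stronger inhibition (inferred: compounds with an IC50 in retests scored well above the rest). Size under these conditions: about 69,000 compounds, about 31 of them at 50% or above in at least one test.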
Pks13 thioesterase: 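Enzyme assay of the thioesterase domain of polyketide synthase 13; the read-out is not stated. Target: Polyketide synthase Pks13, Mycobacterium tuberculosis (UniProt I6X8D2). Tested at 30 µM. Higher reads as stronger inhibition (inferred from which compounds were picked for retests). Of about 67,000 compounds tested this way, about 300 (0.46%) reached 50% or more in at least one test.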

Results are given as percent effect.
How 0% and 100% were set is not recorded. Most values in the screen are low, and negative values occur.
Compounds were drawn at random from those tested, without regard to their results.

| structure | PfKRS1 | TcHisRS | Pks13 thioesterase |
|---|---|---|---|
| `Cc1ccc(-n2nnc(CC(=O)N3CCN(C4CC4)CC3)c2C)cc1` | 9.215 | 1.345 | -21.12 |
| `CCCc1n[nH]c(C2CN(C(=O)c3cncnc3C)CCO2)n1` (stereo not shown) | 1.128 | 1.734 | -10.35 |
| `O=C(NCc1cc[nH]n1)NCC(c1ccccc1Cl)N1CCCC1` (stereo not shown) | 3.99 | -0.8475 | -13.67 |
| `O=C(c1ccc2ccccc2c1)C1CCCN(C(=O)Cn2cncn2)C1` (stereo not shown) | -0.7122 | 5.882 | 6.886 |
| `Cc1cc(C2CCCN2CCCc2nc3ccccc3o2)on1` (stereo not shown) | 9.272 | 2.256 | -5.292 |
| `Cc1cnc(C(=O)N2CCC3(CC2)CC(c2ccncc2)C(=O)N3)cn1` (stereo not shown) | 7.16 | 2.941 | -31.68 |
| `c1cnc2[nH]c(C3CCCC3)c(CN3CCOCC3)c2c1` | 4.339 | 2.222 | 12.19 |
| `O=C(c1ccncc1)N1CCC(O)(Cn2ccc3ccncc32)CC1` | 2.733 | 1.622 | -59.04 |
| `Cc1nc(C(C)NC(=O)c2cn(Cc3ccc(Cl)cc3)nn2)n[nH]1` (stereo not shown) | 0.4352 | 0 | -10.6 |
| `CCc1ccc2nc(C)cc(C(=O)N[C@@H]3CCCNC3)c2c1` | 7.553 | 9.877 | -7.894 |
| `Cc1cc(CNC(=O)c2cnoc2C)c(C)o1` | 1.904 | 4 | 10.66 |
| `O=c1[nH]c(N2CCCCC2)nc2nccc(-c3ccc4c(c3)OCO4)c12` | 6.069 | 0.5917 | -6.644 |
| `CNC(=O)c1sc(C2CCCC2)nc1C` | -1.374 | 5.844 | -8.814 |
| `Cc1cnc2n(c1=O)CC(C(=O)NCc1ccccc1Cl)CS2` (stereo not shown) | 1.15 | 0 | -9.179 |
| `Cc1csc(N(C)C(=O)C2CC(=O)N(CCc3ccccc3)C2)n1` (stereo not shown) | 7.998 | 2.717 | -23.61 |
| `CC(=O)NC(C)c1ccc(OCC2CC2)c(F)c1` (stereo not shown) | 4.631 | 1.087 | -27.76 |
| `CC(C)c1ncc2c(n1)CN(CCCc1nc3ccccc3o1)CC2` | -0.3374 | 21.33 | 4.603 |
| `Cc1noc(CCCC(=O)NCC(c2ccco2)N2CCCCC2)n1` (stereo not shown) | 2.594 | 9.639 | 15.13 |
| `CC(c1cccnc1)N(C)Cc1ccccn1` (stereo not shown) | -2.25 | -0.4484 | -14.53 |
| `CCc1ccccc1C(=O)N1CCCC1CC(=O)c1cnn(C)c1` (stereo not shown) | 0.8541 | 1.433 | 1.651 |
| `CCc1noc(C(C)N(C)CC(=O)Nc2ccccc2Cl)n1` (stereo not shown) | 1.711 | 1.84 | -0.2346 |
| `CCNc1nc(-c2cccnc2)c(-c2ccnc(NCCO)n2)s1` | 2.993 | 10.17 | 37.61 |
| `O=C1N(Cc2cccc(F)c2)CCC12CCN(c1ccccn1)CC2` | 0.2299 | 6.796 | -22.4 |
| `O=C(CCn1cccn1)N1CCC(c2nnc(-c3ccccn3)o2)CC1` | -0.2547 | 1.515 | 7.252 |
| `Cc1nn(C)c(N(C)C)c1CNCC(O)COc1ccc(F)cc1` (stereo not shown) | -0.4753 | 4.959 | -22.25 |
| `CC(C)c1ncc2c(n1)CN(CC(=O)Nc1ccncc1)CC2` | 1.168 | 4.624 | -5.852 |
| `CSc1nccc(NCC2CNCCO2)n1` (stereo not shown) | 2.566 | 4.813 | -25.14 |
| `CCCN(Cc1ccc(C(=O)NCC2COCCO2)c(=O)[nH]1)C1CC1` (stereo not shown) | -4.39 | -7.692 | -10.15 |
| `COCCC(=O)N1CCN(C)c2ncccc2C1` | 4.377 | 2.51 | -6.336 |
| `COCC(=O)N1C[C@H]2CCC[C@@]2(COC)C1` | 3.431 | 0.5587 | 2.18 |
| `Cc1cc(C)n(C2CN(Cc3noc(-c4ccccc4)n3)C2)n1` | -0.8974 | 6.695 | -3.02 |
| `CCn1c(C(=O)N2CCN(CC[S+](C)[O-])CC2)cc2ccccc21` (stereo not shown) | 2.628 | 5.714 | 6.27 |
| `CC1=Nc2c(c(O)nn2C(C)C)C(c2cccnc2)S1` (stereo not shown) | -0.9736 | 3.96 | 0.2461 |
| `C[C@H]1C[C@H]2CN(C(=O)CCOc3ccccc3)CC[C@H]2O1` | -1.724 | 6.863 | -8.728 |
| `CCN1CCC(NC(=O)c2ccc(F)cc2I)CC1` | 7.529 | -10.27 | -17.63 |
| `Cc1nc(CC(=O)N2CCN(C(C)c3ccccc3F)CC2)cs1` (stereo not shown) | 5.34 | 0.578 | 12.64 |
| `CC(C(=O)N1CCc2ccccc21)N1CCc2cncnc2C1` (stereo not shown) | 4.231 | 25.14 | 2.428 |
| `CC(=O)NCC(=O)N1CCC2(CC1)NC(=O)CC2c1cnn(C)c1` (stereo not shown) | -1.84 | 5.714 | -9.307 |

The values are deposited in ChEMBL (CHEMBL3988442, “University of Dundee, Small-Polar-MMV Screening Library” (2021)).